To fix the notation:
B1: 2PE95 (VHH)
VHH: QVQLQESGGGLVQVGGSLRLSCADSGSTFSINAMGWYRQAPGKRRDWVAGITSSGVTKYPDSVKGRFTISRDNAKNTVYLQMNSLKPEDTAVYYCNLWPPRASPSGRIYWGQGTQVTVSS
B2: 3PE69 (VHH)
VHH: QVQLQESGGGLVQPGGSLTLSCTTSEFTLAYFGVGWFRQAPGKRRDWVAGITTDGITKYPDSLKGRFTISRDNAKNTVYLQMNSLKPEDTAVYYCNLWPPRASPSGRLYWGQGTQVTVSS
B3: 3PE21 (VHH)
VHH: QVQLQESGGGLVQAGESLRLSCAASGRDFRDNSMGWYRQAPGKRREWVAGISSGGVTHYPDSVKGRFTISRDNAKNIVYLQMDSLKPEDTAVYYCNLWPPRASPSGSIYWGQGTQVTVSS
B4: 3PE1 (VHH)
VHH: QVQLQESGGGLVQAGGSLKLSCAGSGSTFSINAMAWYRQAPGERRELVAGISGDNITNYPDSVKGRFTISRDNAKNTVYLQMSSLKPEDTAVYYCNLWPPRASPGGRVYWGQGTQVTVSS
B5: 3PE77 (VHH)
VHH: QVQLQESGGGLVQPGGSLRLSCADSGSTFTINAMAWYRQAPGKRRELVAGISGGVTNYPDSVKGRFTISRDNAKNTVYLQMSSLKPEDTAVYYCNLWPPRASPDGRVYWSQGTQVTVSS
B6: 2PE19 (VHH)
VHH: B5 VHH with S110G
B7: 3PE90 (VHH)
VHH: QVQLQESGGGLVQVGGSLRLSCAASGSTFSINAMGWYRQAPGKRREWVAGITSGVTHYPDSVKGRFTISRDNAKNTVYLQMNSLKPEDTAVYYCNLWPPRASPSGSIYWGQGTQVTVSS
B8: 2PE18 (VHH)
VHH: QVQLQESGGGLVQAGGSLRLSCADSGSTFGLSAMGWYRQTPGKQRELVASITSDGRTNYADSVKGRFTISRVNPKRTVYLQMNSLKPDDTAVYVCNARFGIRDFWGQGTQVTVSS
B9: 3PE63 (VHH)
VHH: B8 VHH with T40S, T52I, P74A, D88E
B10: 3PE46 (VHH)
VHH: B8 VHH with S32G, T40S, D54G, N73G, P74A, K86R, D88E
B11: 2PE22 (VHH)
VHH: B8 VHH with A14P
B12: 3PE70 (VHH)
VHH: B8 VHH with S32G, T40S, D54G, A60S, N73T, T77I, D88E
B13: 3PE61 (VHH)
VHH: B8 VHH with Q13R, A14P, T40S, T52I, P74A, D88E
B14: 3PE33 (VHH)
VHH: B8 VHH with S32G, T40S, D54G, V72E, D88E
B15: 3PE22 (VHH)
VHH: B8 VHH with A14P, S32G, T40S, D54G, N73G, P74A, D88E
B16: 2PE26 (VHH)
VHH: B8 VHH with S32G, T40S, D54G, P74A, D88E
B17: 3PE16 (VHH)
VHH: B8 VHH with Q39L
B18: 3PE55 (VHH)
VHH: B8 VHH with S32G, T40S, D54G, N73S, P74A, D88E
B19: 3PE26 (VHH)
VHH: B8 VHH with S32G, T40S, D54G, N73G, P74A, D88E
B20: 3PE4 (VHH)
VHH: B8 VHH with S32G, T40S, D54G, A60S, T77I, D88E
B21: 2PE88 (VHH)
VHH: QVQLQESGGGLVQPGGSLRLSCAASESTFSINAVAWYRQAPGKRRELVAGISGGGVTNYPDSVKGRFTISRDNAKNIVYLQMSSLKPEDTAVYYCNLWPPRAPPGGRVYWGQGTQVTVSS
B22: 3PE5 (VHH)
VHH: B21 VHH with E26G, V34M, K43Q, I77T, P103S
B23: 3PE28 (VHH)
VHH: B21 VHH with G15E, E26G, T28I, F29S, V34M, S52D, I77T, P103S
B24: 3PE62 (VHH)
VHH: B21 VHH with E26G, I31S, V34M, I77T, P103S, G105D, R107G
B25: 3PE43 (VHH)
VHH: B21 VHH with P14A, E26G, I31V, I77T, P103S, G105D
B26: 3PE72 (VHH)
VHH: B21 VHH with P14A, E26G, I31G, V34M, Q39R, I77T, A102V, P103S
B27: 3PE44 (VHH)
VHH: B21 VHH with E26G, V34M, G55D, N58H, I77T, P103S
B28: 3PE49 (VHH)
VHH: B4 VHH with A14P, K19R, D61N
B29: 3PE82 (VHH)
VHH: B21 VHH with G15E, E26G, T28I, F29S, V34M, S52D, I77T, P103S, Q112K
B30: 3PE47 (VHH)
VHH: B21 VHH with E26G, I77T, K86I, P103S
B31: 3PE92 (VHH)
VHH: QVQLQESGGGLVQVGGSLRLSCAASGSTFSINNAMGWYRQAPGKRREWVAGISSGGVTHYPDSVKGRFTISRDNAKNIVYLQMNSPKPEDTAVYYCNLWPPRASPSGSIYWGQGTQVTVSS

Sequences of proteins named here, by UniProt entry; tags and fusion partners are left off. A change or cut given only in a name is not applied to a line headed by its entry.
UniProt Q12884: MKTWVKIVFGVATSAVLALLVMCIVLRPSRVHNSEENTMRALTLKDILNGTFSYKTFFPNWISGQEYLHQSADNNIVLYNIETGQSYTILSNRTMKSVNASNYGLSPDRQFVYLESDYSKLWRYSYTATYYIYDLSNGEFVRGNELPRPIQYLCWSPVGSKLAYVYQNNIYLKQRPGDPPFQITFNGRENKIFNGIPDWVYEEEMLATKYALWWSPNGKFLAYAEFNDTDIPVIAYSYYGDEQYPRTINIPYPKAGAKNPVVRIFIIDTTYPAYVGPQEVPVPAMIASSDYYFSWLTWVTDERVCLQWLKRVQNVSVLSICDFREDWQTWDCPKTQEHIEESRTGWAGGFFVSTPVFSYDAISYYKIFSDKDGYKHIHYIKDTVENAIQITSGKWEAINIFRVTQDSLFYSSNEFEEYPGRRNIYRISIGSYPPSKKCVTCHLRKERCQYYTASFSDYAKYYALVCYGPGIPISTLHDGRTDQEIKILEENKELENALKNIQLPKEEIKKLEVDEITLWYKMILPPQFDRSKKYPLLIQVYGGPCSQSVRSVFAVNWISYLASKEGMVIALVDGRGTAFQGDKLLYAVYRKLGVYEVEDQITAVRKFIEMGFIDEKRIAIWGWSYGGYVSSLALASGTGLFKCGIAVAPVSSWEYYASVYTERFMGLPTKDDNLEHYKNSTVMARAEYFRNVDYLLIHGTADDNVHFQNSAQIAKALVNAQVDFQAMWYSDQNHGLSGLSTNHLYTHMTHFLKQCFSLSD

The values that follow come from US20220332844A1 (ORIONIS BIOSCIENCES, published 2022).

Positions count from the first letter of the chain named. Results are given in words; binding and its absence hold for the method and conditions named. Some entries that bind do so weakly or less than the wild type.

This assay concerns the target recombinant human FAPa extracellular domain (human) (UniProt Q12884). Nature of the assay: library panning on coated antigen, positive colonies; members in Table 6.
For the molecule B1, the binding entry is given as “binds”.

As to B2, the binding entry is recorded as “binds”.

For the molecule B3, the binding entry is on record as “binds”. The entry for B4 is “binds”; for B5 it is “binds”; for B6 it is “binds”. The value for B7 was “binds”. The value for B8 was “binds”; that for B9 was “binds”. As to B10, the binding entry is given as “binds”. For B11, the binding result was “binds”.

In the case of B12, the binding entry is listed as “binds”. The entry for B13 is “binds”; for B14 it is “binds”; for B15 it is “binds”. The entry for B16 is “binds”. The entry for B17 is “binds”; for B18 it is “binds”.

In the case of B19, the binding result is given as “binds”. For B20, the binding entry is reported as “binds”. The value for B21 was “binds”; that for B22 was “binds”; that for B23 was “binds”. Turning to B24, the binding result is “binds”. The value for B25 was “binds”; that for B26 was “binds”; that for B27 was “binds”.

On to B28, for which the binding result is reported as “binds”. The value for B29 was “binds”. In the case of B30, the binding result was “binds”. Turning to B31, the binding result was “binds”.
